The list shows a part of the results.
Experiments:
Experiment in all cases: log2 fold change, soluble protein after heating vs DMSO (PISA); higher = thermal stabilisation; K562 lysate, 10 uM; active = over 0.2 and 3.5 SD of the protein, either way, in both replicates (recomputed)
alvocidib = compound: CN1CC[C@H](c2c(O)cc(O)c3c(=O)cc(-c4ccccc4Cl)oc23)[C@H](O)C1 [alvocidib]
Method in brief: (§1)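 Thermal stability, expressed as log-two fold change relative to solvent controls, is given from duplicates. Crude K562 extract in PBS pH 7.4 with 1 mM MgCl2, at 1 mg/mL protein, was treated with 10 μM compound for 30 min and heated in aliquots for 3 min across 48°C-58°C. After pooling, adjustment to 0.5% NP-40 at 4°C and centrifugation at 21,000xg for 90 min, supernatant protein was measured by TMTpro 16plex LC-MS/MS with channel sums equalised.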

Sequences of proteins named here, by UniProt entry; tags and fusion partners are left off. A change or cut given only in a name is not applied to a line headed by its entry.
UniProt P52948: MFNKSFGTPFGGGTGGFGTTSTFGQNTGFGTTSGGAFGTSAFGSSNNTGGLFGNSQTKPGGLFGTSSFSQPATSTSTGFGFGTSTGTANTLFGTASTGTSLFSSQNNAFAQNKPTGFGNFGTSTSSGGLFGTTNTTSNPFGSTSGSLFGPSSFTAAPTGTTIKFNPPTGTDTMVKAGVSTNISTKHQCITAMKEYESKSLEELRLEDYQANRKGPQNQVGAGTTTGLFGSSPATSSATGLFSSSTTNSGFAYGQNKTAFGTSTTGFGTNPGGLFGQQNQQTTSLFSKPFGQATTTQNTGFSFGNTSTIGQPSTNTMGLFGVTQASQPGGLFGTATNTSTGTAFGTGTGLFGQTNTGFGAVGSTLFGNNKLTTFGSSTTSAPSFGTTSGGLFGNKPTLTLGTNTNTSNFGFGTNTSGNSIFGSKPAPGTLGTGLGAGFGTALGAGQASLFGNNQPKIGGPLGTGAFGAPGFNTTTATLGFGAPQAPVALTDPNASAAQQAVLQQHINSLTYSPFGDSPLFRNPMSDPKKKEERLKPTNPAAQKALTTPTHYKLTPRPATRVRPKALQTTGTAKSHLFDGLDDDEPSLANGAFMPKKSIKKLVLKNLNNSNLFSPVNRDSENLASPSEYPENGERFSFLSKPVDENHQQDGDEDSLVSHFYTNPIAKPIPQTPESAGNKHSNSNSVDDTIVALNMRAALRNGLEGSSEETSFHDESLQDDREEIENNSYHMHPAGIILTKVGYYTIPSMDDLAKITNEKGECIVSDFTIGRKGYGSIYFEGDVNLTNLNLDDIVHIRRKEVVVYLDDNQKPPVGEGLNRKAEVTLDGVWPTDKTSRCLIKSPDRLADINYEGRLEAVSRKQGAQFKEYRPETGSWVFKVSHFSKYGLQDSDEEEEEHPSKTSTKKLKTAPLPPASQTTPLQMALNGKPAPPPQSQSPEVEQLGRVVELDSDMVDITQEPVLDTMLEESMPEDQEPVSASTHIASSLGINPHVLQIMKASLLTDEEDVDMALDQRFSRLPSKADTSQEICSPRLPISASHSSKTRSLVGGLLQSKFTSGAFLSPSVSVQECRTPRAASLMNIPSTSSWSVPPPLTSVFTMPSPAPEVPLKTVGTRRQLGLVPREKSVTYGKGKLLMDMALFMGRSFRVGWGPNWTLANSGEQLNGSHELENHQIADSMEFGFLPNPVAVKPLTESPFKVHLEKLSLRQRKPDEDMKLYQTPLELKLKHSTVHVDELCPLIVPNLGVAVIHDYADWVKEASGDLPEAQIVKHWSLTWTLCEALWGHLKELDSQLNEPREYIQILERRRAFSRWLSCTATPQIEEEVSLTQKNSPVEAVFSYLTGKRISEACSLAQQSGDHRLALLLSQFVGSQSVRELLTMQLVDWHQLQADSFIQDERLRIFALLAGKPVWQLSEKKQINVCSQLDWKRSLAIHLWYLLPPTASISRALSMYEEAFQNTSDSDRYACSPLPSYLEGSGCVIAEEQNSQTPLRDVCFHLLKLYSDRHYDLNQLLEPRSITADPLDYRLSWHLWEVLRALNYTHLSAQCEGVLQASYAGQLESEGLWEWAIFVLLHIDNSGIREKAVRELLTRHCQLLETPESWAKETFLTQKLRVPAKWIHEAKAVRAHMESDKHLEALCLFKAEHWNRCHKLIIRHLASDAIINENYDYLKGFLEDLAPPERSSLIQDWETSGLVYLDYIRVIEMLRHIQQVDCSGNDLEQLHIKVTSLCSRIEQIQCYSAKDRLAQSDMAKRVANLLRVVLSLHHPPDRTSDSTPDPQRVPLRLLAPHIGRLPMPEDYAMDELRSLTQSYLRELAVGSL
UniProt O75459: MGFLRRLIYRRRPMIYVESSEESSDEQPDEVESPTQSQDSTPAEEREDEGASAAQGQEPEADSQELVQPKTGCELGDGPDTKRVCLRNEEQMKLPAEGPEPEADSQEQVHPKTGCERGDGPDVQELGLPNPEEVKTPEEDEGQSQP
UniProt Q8NFH3: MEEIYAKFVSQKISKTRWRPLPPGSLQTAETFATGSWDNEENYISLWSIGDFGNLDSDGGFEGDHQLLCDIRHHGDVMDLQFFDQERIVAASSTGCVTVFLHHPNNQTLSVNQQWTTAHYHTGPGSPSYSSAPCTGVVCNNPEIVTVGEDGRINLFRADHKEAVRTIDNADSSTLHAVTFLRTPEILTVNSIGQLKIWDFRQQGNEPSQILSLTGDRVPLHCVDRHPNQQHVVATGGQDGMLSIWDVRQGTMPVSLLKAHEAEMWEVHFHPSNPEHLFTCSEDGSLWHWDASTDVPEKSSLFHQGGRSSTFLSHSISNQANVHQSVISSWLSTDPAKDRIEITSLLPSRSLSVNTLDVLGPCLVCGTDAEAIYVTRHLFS
UniProt Q96FW1, whole entry, looked up: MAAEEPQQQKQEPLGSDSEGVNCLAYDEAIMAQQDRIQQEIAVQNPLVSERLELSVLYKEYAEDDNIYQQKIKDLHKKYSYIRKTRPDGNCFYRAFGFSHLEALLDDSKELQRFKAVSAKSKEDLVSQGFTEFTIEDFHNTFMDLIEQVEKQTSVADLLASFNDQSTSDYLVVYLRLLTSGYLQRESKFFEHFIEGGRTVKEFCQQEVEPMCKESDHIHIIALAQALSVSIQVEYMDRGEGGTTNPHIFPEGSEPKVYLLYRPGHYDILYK
UniProt P35658: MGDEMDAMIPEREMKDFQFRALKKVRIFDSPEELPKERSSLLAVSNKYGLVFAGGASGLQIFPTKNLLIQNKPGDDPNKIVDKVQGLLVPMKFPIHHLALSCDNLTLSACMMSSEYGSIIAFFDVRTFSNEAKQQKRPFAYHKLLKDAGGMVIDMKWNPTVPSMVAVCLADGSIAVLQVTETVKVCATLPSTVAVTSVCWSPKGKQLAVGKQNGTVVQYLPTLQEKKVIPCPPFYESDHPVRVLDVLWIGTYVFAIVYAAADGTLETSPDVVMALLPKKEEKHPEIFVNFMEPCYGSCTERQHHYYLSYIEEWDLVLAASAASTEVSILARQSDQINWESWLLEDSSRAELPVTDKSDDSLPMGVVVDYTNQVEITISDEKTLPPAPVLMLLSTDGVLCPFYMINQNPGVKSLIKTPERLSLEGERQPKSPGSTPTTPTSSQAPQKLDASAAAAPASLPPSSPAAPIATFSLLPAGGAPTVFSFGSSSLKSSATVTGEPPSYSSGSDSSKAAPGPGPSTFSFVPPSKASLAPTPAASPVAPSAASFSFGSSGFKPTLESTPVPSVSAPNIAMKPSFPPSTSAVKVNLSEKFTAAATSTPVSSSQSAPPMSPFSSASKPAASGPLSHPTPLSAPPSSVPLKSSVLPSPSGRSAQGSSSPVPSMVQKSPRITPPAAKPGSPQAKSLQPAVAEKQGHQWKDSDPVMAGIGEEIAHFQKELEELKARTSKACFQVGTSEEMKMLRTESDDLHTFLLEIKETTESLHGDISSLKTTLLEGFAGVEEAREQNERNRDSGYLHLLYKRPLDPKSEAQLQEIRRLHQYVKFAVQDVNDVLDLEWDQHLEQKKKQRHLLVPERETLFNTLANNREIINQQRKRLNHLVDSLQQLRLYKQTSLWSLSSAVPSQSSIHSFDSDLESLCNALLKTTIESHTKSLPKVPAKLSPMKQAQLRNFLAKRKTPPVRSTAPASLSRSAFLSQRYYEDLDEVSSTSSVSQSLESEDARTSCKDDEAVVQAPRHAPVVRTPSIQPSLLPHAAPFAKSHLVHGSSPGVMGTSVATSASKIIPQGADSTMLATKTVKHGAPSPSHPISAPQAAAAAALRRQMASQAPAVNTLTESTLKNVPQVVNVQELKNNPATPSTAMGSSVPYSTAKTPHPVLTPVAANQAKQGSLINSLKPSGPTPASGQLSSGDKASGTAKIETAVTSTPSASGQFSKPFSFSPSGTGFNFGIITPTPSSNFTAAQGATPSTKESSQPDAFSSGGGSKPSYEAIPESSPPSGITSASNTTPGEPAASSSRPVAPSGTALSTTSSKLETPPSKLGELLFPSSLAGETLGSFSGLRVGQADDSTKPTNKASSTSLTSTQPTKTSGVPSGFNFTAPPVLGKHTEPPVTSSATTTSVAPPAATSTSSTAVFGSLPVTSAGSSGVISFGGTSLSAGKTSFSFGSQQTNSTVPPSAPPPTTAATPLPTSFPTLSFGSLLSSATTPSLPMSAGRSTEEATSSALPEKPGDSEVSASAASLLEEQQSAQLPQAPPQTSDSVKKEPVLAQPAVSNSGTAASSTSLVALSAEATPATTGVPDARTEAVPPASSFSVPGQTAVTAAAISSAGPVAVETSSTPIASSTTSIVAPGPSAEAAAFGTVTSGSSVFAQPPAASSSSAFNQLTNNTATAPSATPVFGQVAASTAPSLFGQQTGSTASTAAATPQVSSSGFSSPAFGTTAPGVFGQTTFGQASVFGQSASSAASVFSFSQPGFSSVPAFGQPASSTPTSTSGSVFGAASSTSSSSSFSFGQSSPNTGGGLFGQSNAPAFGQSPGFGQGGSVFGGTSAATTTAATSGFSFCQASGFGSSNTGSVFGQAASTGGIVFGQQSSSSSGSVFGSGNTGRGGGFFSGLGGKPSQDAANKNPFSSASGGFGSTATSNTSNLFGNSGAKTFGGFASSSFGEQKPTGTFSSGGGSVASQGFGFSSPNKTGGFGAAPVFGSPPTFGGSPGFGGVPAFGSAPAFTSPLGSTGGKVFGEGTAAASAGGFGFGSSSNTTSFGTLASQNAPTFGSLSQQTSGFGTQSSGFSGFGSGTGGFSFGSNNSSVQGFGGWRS
UniProt Q96CV9, whole entry, looked up: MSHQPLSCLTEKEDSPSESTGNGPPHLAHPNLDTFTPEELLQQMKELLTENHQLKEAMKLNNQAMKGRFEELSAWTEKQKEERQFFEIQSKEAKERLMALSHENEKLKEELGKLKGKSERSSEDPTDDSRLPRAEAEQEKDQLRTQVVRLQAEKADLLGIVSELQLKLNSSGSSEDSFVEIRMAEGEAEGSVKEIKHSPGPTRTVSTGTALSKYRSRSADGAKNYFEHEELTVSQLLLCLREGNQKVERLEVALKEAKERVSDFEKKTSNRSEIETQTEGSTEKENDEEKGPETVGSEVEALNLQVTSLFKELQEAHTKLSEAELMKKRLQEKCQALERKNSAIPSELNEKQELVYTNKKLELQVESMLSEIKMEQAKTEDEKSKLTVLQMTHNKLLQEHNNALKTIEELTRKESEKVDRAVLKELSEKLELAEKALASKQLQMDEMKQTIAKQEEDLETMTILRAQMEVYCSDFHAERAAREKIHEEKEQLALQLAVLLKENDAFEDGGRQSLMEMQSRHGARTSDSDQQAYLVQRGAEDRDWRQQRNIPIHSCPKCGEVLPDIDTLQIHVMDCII
UniProt O43929: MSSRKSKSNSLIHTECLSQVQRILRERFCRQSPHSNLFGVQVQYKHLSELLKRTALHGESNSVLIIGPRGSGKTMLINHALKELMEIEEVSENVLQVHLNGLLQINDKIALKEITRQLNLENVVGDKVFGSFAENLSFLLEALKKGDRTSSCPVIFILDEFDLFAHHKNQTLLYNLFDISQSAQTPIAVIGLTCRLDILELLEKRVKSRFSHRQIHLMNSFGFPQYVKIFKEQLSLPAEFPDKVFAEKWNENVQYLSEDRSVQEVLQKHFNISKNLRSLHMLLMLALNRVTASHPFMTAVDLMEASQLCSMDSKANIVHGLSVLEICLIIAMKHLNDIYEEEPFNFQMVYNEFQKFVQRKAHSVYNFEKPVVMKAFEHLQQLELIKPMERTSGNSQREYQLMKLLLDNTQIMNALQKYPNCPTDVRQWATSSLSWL
UniProt Q96SU4: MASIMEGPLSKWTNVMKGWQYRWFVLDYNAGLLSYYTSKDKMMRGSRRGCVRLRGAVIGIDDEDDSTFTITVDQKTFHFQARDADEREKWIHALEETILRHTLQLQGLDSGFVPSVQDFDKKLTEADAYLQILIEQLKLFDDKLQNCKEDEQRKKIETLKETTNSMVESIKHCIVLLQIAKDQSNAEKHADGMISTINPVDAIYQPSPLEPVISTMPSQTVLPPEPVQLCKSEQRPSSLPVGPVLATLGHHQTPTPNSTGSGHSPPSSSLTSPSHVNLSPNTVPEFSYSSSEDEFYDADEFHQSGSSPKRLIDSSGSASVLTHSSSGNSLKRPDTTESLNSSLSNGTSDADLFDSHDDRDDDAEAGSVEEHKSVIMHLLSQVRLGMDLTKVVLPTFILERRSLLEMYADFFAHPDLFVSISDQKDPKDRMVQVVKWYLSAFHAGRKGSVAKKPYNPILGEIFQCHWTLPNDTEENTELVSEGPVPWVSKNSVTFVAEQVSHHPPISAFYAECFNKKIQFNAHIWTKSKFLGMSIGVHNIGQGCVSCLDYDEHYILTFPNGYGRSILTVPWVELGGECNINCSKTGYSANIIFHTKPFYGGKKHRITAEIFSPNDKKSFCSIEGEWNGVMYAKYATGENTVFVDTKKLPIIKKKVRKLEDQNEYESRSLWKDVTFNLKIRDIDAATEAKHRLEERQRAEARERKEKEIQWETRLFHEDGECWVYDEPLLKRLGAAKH

Tubastatin A = compound: CN1CCc2c(c3ccccc3n2Cc2ccc(C(=O)NO)cc2)C1 [Tubastatin A]
Method in brief: as §1

[1] = compound: CNC(=O)C1=CC=CC=C1NC2=NC(=NC=C2Cl)NC3=C(C=C(C=C3)N4CCOCC4)OC
Method in brief: as §1

defactinib = compound: CNC(=O)c1ccc(Nc2ncc(C(F)(F)F)c(NCc3nccnc3N(C)S(C)(=O)=O)n2)cc1 [defactinib]
Method in brief: as §1

[2] = compound: CNc1nc(-c2ccc3c(N)n[nH]c3c2)cc(N2C[C@@H](C(=O)NC3CCCCC3)CC[C@H]2C)n1
Method in brief: as §1

encorafenib = compound: COC(=O)N[C@@H](C)CNc1nccc(-c2cn(C(C)C)nc2-c2cc(Cl)cc(NS(C)(=O)=O)c2F)n1 [encorafenib]
Method in brief: as §1

[3] = compound: COC(=O)[C@H](CCSC)NC(=O)C1=C(C=C(C=C1)NC[C@H](CS)N)C2=CC=CC=C2
Method in brief: as §1

alisertib = compound: COc1cc(Nc2ncc3c(n2)-c2ccc(Cl)cc2C(c2c(F)cccc2OC)=NC3)ccc1C(=O)O [alisertib]
Method in brief: as §1

[4] = compound: COc1cc2nc(-c3cc(F)ccc3O)nc(N[C@@H]3CNC[C@H]3C(C)(C)O)c2cc1OC
Method in brief: as §1

gefitinib = compound: COc1cc2ncnc(Nc3ccc(F)c(Cl)c3)c2cc1OCCCN1CCOCC1 [gefitinib]
Method in brief: as §1

Measured: log2 fold change

NUP88 (UniProt Q99567)
inactive: alvocidib 0.003 | Tubastatin A 0.048 | [1] 0.006 | defactinib 0.028 | [2] -0.016 | encorafenib 0.052 | [3] 0.007 | alisertib 0.01 | [4] 0.024 | gefitinib 0.026

NUP62 (UniProt P37198)
inactive: alvocidib -0.047 | Tubastatin A 0.058 | [1] 0.001 | defactinib 0.029 | [2] 0.042 | encorafenib 0.066 | [3] -0.051 | alisertib 0.031 | [4] -0.014 | gefitinib -0.011

PAFAH1B2 (UniProt P68402)
inactive: alvocidib -0.025 | Tubastatin A -0.033 | [1] -0.032 | defactinib 0.007 | [2] -0.004 | encorafenib -0.027 | [3] 0.028 | alisertib -0.076 | [4] -0.018 | gefitinib 0.042

Quoted from above (two entries):
NUP62 (UniProt P37198)
inactive: alvocidib -0.047 | Tubastatin A 0.058 | [1] 0.001 | defactinib 0.029 | [2] 0.042 | encorafenib 0.066 | [3] -0.051 | alisertib 0.031 | [4] -0.014 | gefitinib -0.011

PAFAH1B2 (UniProt P68402)
inactive: alvocidib -0.025 | Tubastatin A -0.033 | [1] -0.032 | defactinib 0.007 | [2] -0.004 | encorafenib -0.027 | [3] 0.028 | alisertib -0.076 | [4] -0.018 | gefitinib 0.042

(cont.)

NUP98 (UniProt P52948)
inactive: alvocidib -0.019 | Tubastatin A -0.117 | [1] 0.029 | defactinib 0.031 | [2] 0.047 | encorafenib 0.064 | [3] -0.04 | alisertib 0.01 | [4] 0.017 | gefitinib 0.011

P4HB (UniProt P07237)
inactive: alvocidib 0.006 | Tubastatin A 0.015 | [1] -0.021 | defactinib -0.026 | [2] -0.023 | encorafenib -0.009 | [3] -0.046 | alisertib -0.004 | [4] -0.011 | gefitinib 0.022

PAGE1 (UniProt O75459)
inactive: alvocidib 0.048 | Tubastatin A 0.069 | [1] -0.01 | defactinib -0.047 | [2] 0.018 | encorafenib 0.017 | [3] -0.2 | alisertib 0.008 | [4] -0.028 | gefitinib -0.019

NUP188 (UniProt Q5SRE5)
inactive: alvocidib 0.004 | Tubastatin A -0.049 | [1] -0.018 | defactinib 0.038 | [2] -0.016 | encorafenib -0.045 | [3] 0.043 | alisertib -0.007 | [4] 0.025 | gefitinib 0.011

OTUD4 (UniProt Q01804)
inactive: alvocidib 0.043 | Tubastatin A -0.051 | [1] -0.044 | defactinib 0.002 | [2] 0.016 | encorafenib 0.004 | [3] 0.061 | alisertib 0.003 | [4] 0.019 | gefitinib -0.02

OXR1 (UniProt Q8N573)
inactive: alvocidib -0.02 | Tubastatin A 0.033 | [1] 0.038 | defactinib -0.024 | [2] 0.025 | encorafenib 0.059 | [3] -0.05 | alisertib -0.036 | [4] 0.045 | gefitinib -0.047

NUP43 (UniProt Q8NFH3)
inactive: alvocidib -0.003 | Tubastatin A 0.019 | [1] 0.018 | defactinib -0.022 | [2] 0.055 | encorafenib -0.003 | [3] -0.041 | alisertib 0.023 | [4] 0.013 | gefitinib -0.041

OTUB1 (UniProt Q96FW1)
inactive: alvocidib 0.002 | Tubastatin A 0.037 | [1] 0.006 | defactinib -0.008 | [2] -0.01 | encorafenib -0.019 | [3] 0.009 | alisertib 0.029 | [4] -0.008 | gefitinib -0.044

OIP5 (UniProt O43482)
inactive: alvocidib -0.041 | Tubastatin A 0.026 | [1] 0.016 | defactinib 0.016 | [2] 0.069 | encorafenib 0.018 | [3] -0.028 | alisertib -0.043 | [4] 0.011 | gefitinib 0.009

OTUD7B (UniProt Q6GQQ9)
inactive: alvocidib -0.052 | Tubastatin A -0.099 | [1] 0.005 | defactinib 0.022 | [2] -0.011 | encorafenib 0.042 | [3] 0.049 | alisertib -0.006 | [4] -0.031 | gefitinib 0.062

OSBPL11 (UniProt Q9BXB4)
inactive: alvocidib -0.043 | Tubastatin A 0.24 | [1] -0.071 | defactinib 0.022 | [2] 0.046 | encorafenib -0.01 | [3] 0.048 | alisertib -0.012 | [4] 0.082 | gefitinib -0.019

PAAF1 (UniProt Q9BRP4)
inactive: alvocidib -0.012 | Tubastatin A 0.016 | [1] -0.002 | defactinib -0.037 | [2] -0.017 | encorafenib 0.035 | [3] -0.038 | alisertib -0.017 | [4] 0.011 | gefitinib -0.012

OPA3 (UniProt Q9H6K4)
inactive: alvocidib -0.047 | Tubastatin A -0.093 | [1] -0.055 | defactinib -0.018 | [2] 0.036 | encorafenib 0.007 | [3] 0.132 | alisertib 0.004 | [4] -0.162 | gefitinib 0.13

PAGR1 (UniProt Q9BTK6)
inactive: alvocidib 0.084 | Tubastatin A -0.295 | [1] -0.114 | defactinib 0.013 | [2] -0.015 | encorafenib 0.077 | [3] 0.037 | alisertib -0.023 | [4] -0.034 | gefitinib 0.013

OTUD5 isoform 5 (UniProt Q96G74)
inactive: alvocidib -0.037 | Tubastatin A 0.031 | [1] 0.048 | defactinib -0.002 | [2] 0.062 | encorafenib 0.008 | [3] -0.029 | alisertib -0.03 | [4] 0.027 | gefitinib -0.006

NUP214 (UniProt P35658)
inactive: alvocidib -0.039 | Tubastatin A -0.029 | [1] -0.015 | defactinib 0.016 | [2] 0.012 | encorafenib 0.029 | [3] 0.04 | alisertib 0.029 | [4] 0.017 | gefitinib 0.024

PALM3 (UniProt A6NDB9)
inactive: alvocidib 0.022 | Tubastatin A 0.057 | [1] 0.066 | defactinib -0.056 | [2] -0.009 | encorafenib -0.001 | [3] -0.028 | alisertib -0.124 | [4] 0.02 | gefitinib -0.01

OVCA2 (UniProt Q8WZ82)
inactive: alvocidib -0.084 | Tubastatin A -0.045 | [1] -0.016 | defactinib 0.092 | [2] -0.065 | encorafenib -0.026 | [3] 0.031 | alisertib -0.023 | [4] -0.098 | gefitinib -0.24

PANK3 (UniProt Q9H999)
inactive: alvocidib -0.023 | Tubastatin A 0.107 | [1] 0.121 | defactinib -0.028 | [2] 0.081 | encorafenib -0.041 | [3] 0.155 | alisertib 0.113 | [4] 0.23 | gefitinib -0.015

OPTN (UniProt Q96CV9)
inactive: alvocidib 0.012 | Tubastatin A 0.024 | [1] -0.002 | defactinib 0.082 | [2] 0.036 | encorafenib 0.022 | [3] -0.047 | alisertib -0.049 | [4] -0.007 | gefitinib 0.003

OGFOD1 (UniProt Q8N543)
inactive: alvocidib 0.01 | Tubastatin A 0.025 | [1] 0.016 | defactinib -0.017 | [2] -0.037 | encorafenib 0 | [3] 0.051 | alisertib 0 | [4] 0.028 | gefitinib 0.018

NUP42 (UniProt O15504)
inactive: alvocidib 0.032 | Tubastatin A 0.05 | [1] -0.073 | defactinib 0.045 | [2] -0.025 | encorafenib -0.057 | [3] -0.065 | alisertib -0.014 | [4] -0.043 | gefitinib 0.041

OSTF1 (UniProt Q92882)
inactive: alvocidib -0.003 | Tubastatin A -0.018 | [1] -0.048 | defactinib 0.084 | [2] 0.025 | encorafenib -0.045 | [3] -0.022 | alisertib 0.019 | [4] -0.01 | gefitinib -0.005

ORC4 (UniProt O43929)
inactive: alvocidib 0.033 | Tubastatin A -0.126 | [1] -0.014 | defactinib 0.061 | [2] 0.028 | encorafenib 0 | [3] 0.117 | alisertib 0.022 | [4] -0.022 | gefitinib -0.008

PAIP1 (UniProt Q9H074)
inactive: alvocidib -0.003 | Tubastatin A 0.036 | [1] 0.012 | defactinib 0.004 | [2] 0 | encorafenib 0 | [3] -0.047 | alisertib 0.001 | [4] 0.008 | gefitinib -0.01

OSBPL9 isoform 2 (UniProt Q96SU4)
inactive: alvocidib -0.008 | Tubastatin A 0.015 | [1] 0.029 | defactinib 0.044 | [2] -0.031 | encorafenib -0.015 | [3] 0.104 | alisertib 0.045 | [4] 0.051 | gefitinib -0.027

OGA (UniProt O60502)
inactive: alvocidib 0.015 | Tubastatin A -0.023 | [1] 0.021 | defactinib 0.001 | [2] 0.017 | encorafenib 0.029 | [3] -0.029 | alisertib 0.004 | [4] 0 | gefitinib 0.007

From the supplement of paper PMC10849652
